The supplement of paper PMC12823440, “Inhibitors supercharge kinase turnover through native proteolytic circuits” (Nature, 2025)
Structures can show the parent of a compound that is named as a salt. This is one part of the list. The calls rarely recur for the same compound in another form.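 Kinases were expressed as nanoluciferase fusions in K562 cells and luminescence was read every 4 h between 2 and 18 h as percent of control, DMSO set to 100% and a positive control to 0%. A time point counts as decreased when the signal drops significantly (2 sigma). The hit call is the authors' own, does not follow from the count of time points alone, and its rule is not shown.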

By UniProt entry, the sequences of proteins in these tests, tags left out. Where a name states a change or a piece, a line headed by the entry shows the natural chain unless it says otherwise.
UniProt Q15208: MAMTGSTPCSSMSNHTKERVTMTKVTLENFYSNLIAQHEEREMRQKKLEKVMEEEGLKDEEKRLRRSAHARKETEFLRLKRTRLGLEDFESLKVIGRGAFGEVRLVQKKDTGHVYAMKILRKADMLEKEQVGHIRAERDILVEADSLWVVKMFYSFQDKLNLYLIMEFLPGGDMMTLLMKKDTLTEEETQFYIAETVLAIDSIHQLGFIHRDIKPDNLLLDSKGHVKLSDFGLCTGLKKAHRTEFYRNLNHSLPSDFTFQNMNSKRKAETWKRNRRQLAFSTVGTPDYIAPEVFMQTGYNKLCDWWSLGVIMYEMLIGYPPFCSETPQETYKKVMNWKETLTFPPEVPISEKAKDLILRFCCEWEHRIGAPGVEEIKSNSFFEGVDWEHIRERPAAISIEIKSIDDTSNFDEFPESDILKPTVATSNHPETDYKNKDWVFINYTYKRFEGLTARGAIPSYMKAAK
UniProt P42680: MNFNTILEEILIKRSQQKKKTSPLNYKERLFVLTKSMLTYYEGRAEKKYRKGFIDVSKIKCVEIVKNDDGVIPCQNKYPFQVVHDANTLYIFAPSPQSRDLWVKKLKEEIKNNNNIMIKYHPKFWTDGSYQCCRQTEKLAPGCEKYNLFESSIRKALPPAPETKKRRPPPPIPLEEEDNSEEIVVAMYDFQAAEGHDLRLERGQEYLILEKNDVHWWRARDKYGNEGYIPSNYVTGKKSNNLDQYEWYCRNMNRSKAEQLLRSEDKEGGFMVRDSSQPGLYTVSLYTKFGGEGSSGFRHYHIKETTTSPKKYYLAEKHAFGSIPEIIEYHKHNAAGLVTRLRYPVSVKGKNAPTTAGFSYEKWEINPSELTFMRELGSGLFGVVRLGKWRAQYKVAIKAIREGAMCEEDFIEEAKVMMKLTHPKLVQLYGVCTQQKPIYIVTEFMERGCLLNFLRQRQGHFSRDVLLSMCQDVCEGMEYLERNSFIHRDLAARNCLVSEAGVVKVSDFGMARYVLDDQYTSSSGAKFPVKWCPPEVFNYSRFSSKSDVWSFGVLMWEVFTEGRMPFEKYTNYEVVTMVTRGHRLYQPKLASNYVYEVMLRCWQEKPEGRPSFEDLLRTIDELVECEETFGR
UniProt P29597: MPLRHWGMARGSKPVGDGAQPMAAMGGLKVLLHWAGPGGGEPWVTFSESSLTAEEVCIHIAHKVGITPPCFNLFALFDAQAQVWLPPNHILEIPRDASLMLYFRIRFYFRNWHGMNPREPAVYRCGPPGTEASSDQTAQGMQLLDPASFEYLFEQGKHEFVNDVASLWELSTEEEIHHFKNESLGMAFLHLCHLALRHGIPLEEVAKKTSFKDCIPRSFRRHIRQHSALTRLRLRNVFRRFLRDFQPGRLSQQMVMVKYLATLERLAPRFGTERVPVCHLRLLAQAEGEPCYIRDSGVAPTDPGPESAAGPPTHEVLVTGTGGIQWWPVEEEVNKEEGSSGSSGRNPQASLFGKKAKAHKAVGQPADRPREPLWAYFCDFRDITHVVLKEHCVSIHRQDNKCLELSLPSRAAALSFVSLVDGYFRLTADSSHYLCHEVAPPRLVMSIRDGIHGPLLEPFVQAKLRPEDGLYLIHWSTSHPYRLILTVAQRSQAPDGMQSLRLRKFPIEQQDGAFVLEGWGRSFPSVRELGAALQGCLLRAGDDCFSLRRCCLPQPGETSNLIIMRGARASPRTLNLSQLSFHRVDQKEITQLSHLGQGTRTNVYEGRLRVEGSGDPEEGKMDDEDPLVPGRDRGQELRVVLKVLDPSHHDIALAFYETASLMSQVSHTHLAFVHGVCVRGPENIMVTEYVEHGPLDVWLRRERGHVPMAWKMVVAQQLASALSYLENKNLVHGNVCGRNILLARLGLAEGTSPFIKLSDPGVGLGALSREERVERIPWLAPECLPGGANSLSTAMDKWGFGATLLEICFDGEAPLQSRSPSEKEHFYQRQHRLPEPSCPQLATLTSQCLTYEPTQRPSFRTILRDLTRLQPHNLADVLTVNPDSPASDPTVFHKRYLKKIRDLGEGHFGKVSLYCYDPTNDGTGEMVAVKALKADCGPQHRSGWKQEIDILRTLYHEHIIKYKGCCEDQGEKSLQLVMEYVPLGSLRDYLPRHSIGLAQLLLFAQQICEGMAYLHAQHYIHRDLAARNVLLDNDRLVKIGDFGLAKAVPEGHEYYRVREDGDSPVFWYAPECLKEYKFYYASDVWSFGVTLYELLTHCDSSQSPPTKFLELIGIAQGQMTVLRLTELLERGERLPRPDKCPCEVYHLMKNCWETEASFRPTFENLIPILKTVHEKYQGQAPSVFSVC
UniProt Q6PHR2: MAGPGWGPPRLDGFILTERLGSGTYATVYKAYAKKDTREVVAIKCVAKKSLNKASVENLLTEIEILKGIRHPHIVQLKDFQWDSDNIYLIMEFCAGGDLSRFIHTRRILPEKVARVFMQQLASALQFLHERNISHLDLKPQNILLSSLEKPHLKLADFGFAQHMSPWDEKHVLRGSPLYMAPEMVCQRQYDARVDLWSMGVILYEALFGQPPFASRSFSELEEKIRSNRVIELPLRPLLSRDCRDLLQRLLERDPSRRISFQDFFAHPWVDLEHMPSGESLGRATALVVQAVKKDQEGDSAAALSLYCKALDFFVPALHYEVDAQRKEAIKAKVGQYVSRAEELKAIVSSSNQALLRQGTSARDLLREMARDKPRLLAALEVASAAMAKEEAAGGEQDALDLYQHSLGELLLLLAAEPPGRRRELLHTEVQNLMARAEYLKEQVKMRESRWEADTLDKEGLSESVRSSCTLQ
UniProt P07947, whole entry, looked up: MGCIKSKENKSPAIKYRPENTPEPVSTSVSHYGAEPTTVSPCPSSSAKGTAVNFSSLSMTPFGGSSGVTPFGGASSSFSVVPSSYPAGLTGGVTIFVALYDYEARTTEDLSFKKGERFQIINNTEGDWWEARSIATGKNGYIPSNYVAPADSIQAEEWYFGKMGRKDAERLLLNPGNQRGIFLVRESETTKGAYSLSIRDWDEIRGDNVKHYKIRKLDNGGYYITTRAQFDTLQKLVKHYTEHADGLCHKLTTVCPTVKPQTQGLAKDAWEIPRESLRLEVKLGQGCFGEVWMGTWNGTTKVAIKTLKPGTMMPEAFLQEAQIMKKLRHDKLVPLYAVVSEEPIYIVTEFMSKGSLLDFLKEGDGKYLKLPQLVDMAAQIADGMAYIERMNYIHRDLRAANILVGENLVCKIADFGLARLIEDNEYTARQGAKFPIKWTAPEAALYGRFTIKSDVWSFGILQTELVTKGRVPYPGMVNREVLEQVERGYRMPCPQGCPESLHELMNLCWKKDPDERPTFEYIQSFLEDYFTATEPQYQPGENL
UniProt P43403: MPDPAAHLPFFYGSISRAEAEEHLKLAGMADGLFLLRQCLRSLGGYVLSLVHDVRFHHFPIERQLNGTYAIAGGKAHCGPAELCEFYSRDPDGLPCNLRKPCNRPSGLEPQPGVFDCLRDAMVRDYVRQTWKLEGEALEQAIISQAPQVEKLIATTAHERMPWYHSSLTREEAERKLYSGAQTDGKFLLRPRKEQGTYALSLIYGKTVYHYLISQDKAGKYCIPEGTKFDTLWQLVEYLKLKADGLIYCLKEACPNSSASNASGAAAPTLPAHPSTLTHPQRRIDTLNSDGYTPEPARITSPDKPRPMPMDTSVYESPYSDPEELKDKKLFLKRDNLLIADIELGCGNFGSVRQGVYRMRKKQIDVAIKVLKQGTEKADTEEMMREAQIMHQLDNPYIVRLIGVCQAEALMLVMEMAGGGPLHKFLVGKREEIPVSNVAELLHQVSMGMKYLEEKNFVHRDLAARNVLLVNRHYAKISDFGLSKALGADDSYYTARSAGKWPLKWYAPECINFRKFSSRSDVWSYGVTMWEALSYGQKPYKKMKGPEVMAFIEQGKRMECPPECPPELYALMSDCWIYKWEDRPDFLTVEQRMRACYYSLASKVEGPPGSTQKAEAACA
UniProt P00519, whole entry: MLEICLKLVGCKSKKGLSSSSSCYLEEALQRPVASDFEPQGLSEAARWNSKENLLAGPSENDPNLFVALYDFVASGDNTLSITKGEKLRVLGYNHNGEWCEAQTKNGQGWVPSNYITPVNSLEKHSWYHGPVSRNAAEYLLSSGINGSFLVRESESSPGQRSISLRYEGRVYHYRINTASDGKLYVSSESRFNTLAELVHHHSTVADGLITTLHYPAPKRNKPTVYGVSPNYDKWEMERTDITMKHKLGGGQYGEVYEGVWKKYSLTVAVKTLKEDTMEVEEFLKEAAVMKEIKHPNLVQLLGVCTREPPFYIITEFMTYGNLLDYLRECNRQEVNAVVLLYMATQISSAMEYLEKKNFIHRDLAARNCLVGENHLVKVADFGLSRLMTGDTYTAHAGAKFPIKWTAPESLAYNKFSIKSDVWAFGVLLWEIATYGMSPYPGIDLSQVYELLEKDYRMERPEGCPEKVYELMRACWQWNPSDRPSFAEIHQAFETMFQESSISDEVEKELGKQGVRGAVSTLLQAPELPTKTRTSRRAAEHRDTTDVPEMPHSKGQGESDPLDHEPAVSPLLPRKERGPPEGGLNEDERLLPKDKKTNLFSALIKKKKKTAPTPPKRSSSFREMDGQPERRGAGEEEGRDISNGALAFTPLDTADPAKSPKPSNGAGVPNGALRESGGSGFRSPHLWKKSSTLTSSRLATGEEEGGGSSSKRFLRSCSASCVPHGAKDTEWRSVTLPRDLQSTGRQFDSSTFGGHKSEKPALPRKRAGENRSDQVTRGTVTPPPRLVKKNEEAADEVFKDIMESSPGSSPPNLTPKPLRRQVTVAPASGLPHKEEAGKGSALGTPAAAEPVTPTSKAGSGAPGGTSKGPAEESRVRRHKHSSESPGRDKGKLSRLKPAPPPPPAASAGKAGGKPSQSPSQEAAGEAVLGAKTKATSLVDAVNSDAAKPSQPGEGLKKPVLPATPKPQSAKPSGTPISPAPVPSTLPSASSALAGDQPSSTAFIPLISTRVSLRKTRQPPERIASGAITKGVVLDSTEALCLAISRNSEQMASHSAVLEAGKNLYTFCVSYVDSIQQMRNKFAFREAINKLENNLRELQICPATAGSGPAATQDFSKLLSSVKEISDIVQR
UniProt P31749: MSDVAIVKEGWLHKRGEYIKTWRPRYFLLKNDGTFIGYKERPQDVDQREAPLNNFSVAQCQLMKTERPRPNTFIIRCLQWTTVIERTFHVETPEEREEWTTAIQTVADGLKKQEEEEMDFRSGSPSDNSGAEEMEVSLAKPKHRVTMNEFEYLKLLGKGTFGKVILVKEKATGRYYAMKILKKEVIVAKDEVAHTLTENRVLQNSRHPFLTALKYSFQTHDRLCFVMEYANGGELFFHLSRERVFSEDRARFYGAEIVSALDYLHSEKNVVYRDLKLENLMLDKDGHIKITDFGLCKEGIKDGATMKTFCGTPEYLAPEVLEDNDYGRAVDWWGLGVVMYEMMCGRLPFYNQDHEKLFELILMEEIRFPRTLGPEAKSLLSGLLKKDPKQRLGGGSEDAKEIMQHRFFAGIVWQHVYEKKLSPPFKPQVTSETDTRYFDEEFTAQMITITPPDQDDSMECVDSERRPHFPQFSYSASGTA

What was measured:
Conditions in all cases: K562; 2-18 h
STK38 = STK38 (UniProt Q15208); experiment: kinase-Nluc reporter destabilization hit call (1 = scored as downregulated) (binary); higher = compound decreases kinase abundance
SYK = SYK (UniProt P43405); experiment: as above
TEC = TEC (UniProt P42680); experiment: as above
TYK2 = TYK2 (UniProt P29597); experiment: as above
ULK3 = ULK3 (UniProt Q6PHR2); experiment: as above
YES1 = YES1 (UniProt P07947); experiment: as above
ZAK = ZAK (UniProt Q9NYL2); experiment: as above
ZAP70 = ZAP70 (UniProt P43403); experiment: as above
ABL1 = ABL1 (UniProt P00519); experiment: number of time points (of 5) at which kinase-Nluc abundance scored as decreased, DMSO-normalised (count); higher = more persistent destabilization
AKT1 = AKT1 (UniProt P31749); experiment: as above

## CCC(C)(C)C(=O)N(O)Cc1ccccc1 (10 µM)
STK38
  kinase-Nluc reporter destabilization hit call: inactive: 0
SYK
  kinase-Nluc reporter destabilization hit call: inactive: 0
TEC
  kinase-Nluc reporter destabilization hit call: inactive: 0
TYK2
  kinase-Nluc reporter destabilization hit call: inactive: 0
ULK3
  kinase-Nluc reporter destabilization hit call: inactive: 0
YES1
  kinase-Nluc reporter destabilization hit call: inactive: 0
ZAK
  kinase-Nluc reporter destabilization hit call: inactive: 0
ZAP70
  kinase-Nluc reporter destabilization hit call: inactive: 0
ABL1
  number of time points: 0
AKT1
  number of time points: 0

## CN(C)Cc1cccc(N=C(c2ccccc2)c2c(O)[nH]c3cc(C(N)=O)ccc23)c1 (10 µM)
STK38
  kinase-Nluc reporter destabilization hit call: inactive: 0
SYK
  kinase-Nluc reporter destabilization hit call: inactive: 0
TEC
  kinase-Nluc reporter destabilization hit call: inactive: 0
TYK2
  kinase-Nluc reporter destabilization hit call: inactive: 0
ULK3
  kinase-Nluc reporter destabilization hit call: inactive: 0
YES1
  kinase-Nluc reporter destabilization hit call: inactive: 0
ZAK
  kinase-Nluc reporter destabilization hit call: inactive: 0
ZAP70
  kinase-Nluc reporter destabilization hit call: inactive: 0
ABL1
  number of time points: 0
AKT1
  number of time points: 0

## CN(C)C(=O)c1ccc(S(=O)(=O)c2ccc(NC(=O)[C@@](C)(O)C(F)(F)F)c(Cl)c2)cc1 (10 µM)
STK38
  kinase-Nluc reporter destabilization hit call: inactive: 0
SYK
  kinase-Nluc reporter destabilization hit call: inactive: 0
TEC
  kinase-Nluc reporter destabilization hit call: inactive: 0
TYK2
  kinase-Nluc reporter destabilization hit call: inactive: 0
ULK3
  kinase-Nluc reporter destabilization hit call: inactive: 0
YES1
  kinase-Nluc reporter destabilization hit call: inactive: 0
ZAK
  kinase-Nluc reporter destabilization hit call: inactive: 0
ZAP70
  kinase-Nluc reporter destabilization hit call: inactive: 0
ABL1
  number of time points: 0
AKT1
  number of time points: 0

## CCc1c(C)sc(NC(=S)NC(=O)c2ccc(Cl)cc2)c1C(N)=O (10 µM)
STK38
  kinase-Nluc reporter destabilization hit call: inactive: 0
SYK
  kinase-Nluc reporter destabilization hit call: inactive: 0
TEC
  kinase-Nluc reporter destabilization hit call: inactive: 0
TYK2
  kinase-Nluc reporter destabilization hit call: inactive: 0
ULK3
  kinase-Nluc reporter destabilization hit call: inactive: 0
YES1
  kinase-Nluc reporter destabilization hit call: inactive: 0
ZAK
  kinase-Nluc reporter destabilization hit call: inactive: 0
ZAP70
  kinase-Nluc reporter destabilization hit call: inactive: 0
ABL1
  number of time points: 0
AKT1
  number of time points: 0

## N=C(N)NC(=N)NCCc1ccccc1 [Phenformin (hydrochloride)] (10 µM)
STK38
  kinase-Nluc reporter destabilization hit call: inactive: 0
SYK
  kinase-Nluc reporter destabilization hit call: inactive: 0
TEC
  kinase-Nluc reporter destabilization hit call: inactive: 0
TYK2
  kinase-Nluc reporter destabilization hit call: inactive: 0
ULK3
  kinase-Nluc reporter destabilization hit call: inactive: 0
YES1
  kinase-Nluc reporter destabilization hit call: inactive: 0
ZAK
  kinase-Nluc reporter destabilization hit call: inactive: 0
ZAP70
  kinase-Nluc reporter destabilization hit call: inactive: 0
ABL1
  number of time points: 1
AKT1
  number of time points: 0

## COc1cc(N2CCC(N3CCN(C)CC3)CC2)ccc1Nc1nc2c(c(Nc3ccccc3S(=O)(=O)NC(C)C)n1)CCN2 [Conteltinib] (10 µM)
STK38
  kinase-Nluc reporter destabilization hit call: inactive: 0
SYK
  kinase-Nluc reporter destabilization hit call: inactive: 0
TEC
  kinase-Nluc reporter destabilization hit call: inactive: 0
TYK2
  kinase-Nluc reporter destabilization hit call: inactive: 0
ULK3
  kinase-Nluc reporter destabilization hit call: inactive: 0
YES1
  kinase-Nluc reporter destabilization hit call: inactive: 0
ZAK
  kinase-Nluc reporter destabilization hit call: inactive: 0
ZAP70
  kinase-Nluc reporter destabilization hit call: inactive: 0
ABL1
  number of time points: 0
AKT1
  number of time points: 0

## COc1ccc(CN2C3CC2CN(c2ccc(-c4cc(OCC(C)(C)O)cn5ncc(C#N)c45)cn2)C3)cn1 [Selpercatinib] (10 µM)
STK38
  kinase-Nluc reporter destabilization hit call: inactive: 0
SYK
  kinase-Nluc reporter destabilization hit call: inactive: 0
TEC
  kinase-Nluc reporter destabilization hit call: inactive: 0
TYK2
  kinase-Nluc reporter destabilization hit call: inactive: 0
ULK3
  kinase-Nluc reporter destabilization hit call: inactive: 0
YES1
  kinase-Nluc reporter destabilization hit call: inactive: 0
ZAK
  kinase-Nluc reporter destabilization hit call: inactive: 0
ZAP70
  kinase-Nluc reporter destabilization hit call: inactive: 0
ABL1
  number of time points: 0
AKT1
  number of time points: 0

## Cc1cc2cc(Oc3ccnc(Nc4cccc(CS(=O)(=O)NCCN(C)C)c4)n3)ccc2[nH]1 [Sulfatinib] (10 µM)
STK38
  kinase-Nluc reporter destabilization hit call: inactive: 0
SYK
  kinase-Nluc reporter destabilization hit call: inactive: 0
TEC
  kinase-Nluc reporter destabilization hit call: inactive: 0
TYK2
  kinase-Nluc reporter destabilization hit call: inactive: 0
ULK3
  kinase-Nluc reporter destabilization hit call: inactive: 0
YES1
  kinase-Nluc reporter destabilization hit call: inactive: 0
ZAK
  kinase-Nluc reporter destabilization hit call: inactive: 0
ZAP70
  kinase-Nluc reporter destabilization hit call: inactive: 0
ABL1
  number of time points: 4
AKT1
  number of time points: 0

## CCc1cccc(CC)c1NC(=O)c1nn(C)c2c1CCc1cnc(Nc3ccc(C(=O)NC4CCN(C)CC4)cc3OC(F)(F)F)nc1-2 (2 µM)
STK38
  kinase-Nluc reporter destabilization hit call: inactive: 0
SYK
  kinase-Nluc reporter destabilization hit call: inactive: 0
TEC
  kinase-Nluc reporter destabilization hit call: inactive: 0
TYK2
  kinase-Nluc reporter destabilization hit call: inactive: 0
ULK3
  kinase-Nluc reporter destabilization hit call: inactive: 0
YES1
  kinase-Nluc reporter destabilization hit call: inactive: 0
ZAK
  kinase-Nluc reporter destabilization hit call: inactive: 0
ZAP70
  kinase-Nluc reporter destabilization hit call: inactive: 0
ABL1
  number of time points: 0
AKT1
  number of time points: 0

## O=C(O)c1ccccc1Nc1cccc(C(F)(F)F)c1 [Flufenamic acid] (10 µM)
STK38
  kinase-Nluc reporter destabilization hit call: inactive: 0
SYK
  kinase-Nluc reporter destabilization hit call: inactive: 0
TEC
  kinase-Nluc reporter destabilization hit call: inactive: 0
TYK2
  kinase-Nluc reporter destabilization hit call: inactive: 0
ULK3
  kinase-Nluc reporter destabilization hit call: inactive: 0
YES1
  kinase-Nluc reporter destabilization hit call: inactive: 0
ZAK
  kinase-Nluc reporter destabilization hit call: inactive: 0
ZAP70
  kinase-Nluc reporter destabilization hit call: inactive: 0
ABL1
  number of time points: 0
AKT1
  number of time points: 0

## CC(=O)Nc1nc2ccc(-c3cnc(C)c(NC(=O)OC4CCCCC4)c3)cc2s1 (10 µM)
STK38
  kinase-Nluc reporter destabilization hit call: inactive: 0
SYK
  kinase-Nluc reporter destabilization hit call: inactive: 0
TEC
  kinase-Nluc reporter destabilization hit call: inactive: 0
TYK2
  kinase-Nluc reporter destabilization hit call: inactive: 0
ULK3
  kinase-Nluc reporter destabilization hit call: inactive: 0
YES1
  kinase-Nluc reporter destabilization hit call: inactive: 0
ZAK
  kinase-Nluc reporter destabilization hit call: inactive: 0
ZAP70
  kinase-Nluc reporter destabilization hit call: inactive: 0
ABL1
  number of time points: 0
AKT1
  number of time points: 0

## COc1ncc(Nc2ncc([C@@H](C)N3CCN(S(C)(=O)=O)CC3)cc2-c2nc(C)nc(N)n2)cc1F (10 µM)
STK38
  kinase-Nluc reporter destabilization hit call: inactive: 0
SYK
  kinase-Nluc reporter destabilization hit call: inactive: 0
TEC
  kinase-Nluc reporter destabilization hit call: inactive: 0
TYK2
  kinase-Nluc reporter destabilization hit call: inactive: 0
ULK3
  kinase-Nluc reporter destabilization hit call: inactive: 0
YES1
  kinase-Nluc reporter destabilization hit call: inactive: 0
ZAK
  kinase-Nluc reporter destabilization hit call: inactive: 0
ZAP70
  kinase-Nluc reporter destabilization hit call: inactive: 0
ABL1
  number of time points: 0
AKT1
  number of time points: 0

## Cc1cc(Nc2nc(N[C@@H](C)c3ncc(F)cn3)ncc2Cl)[nH]n1 (10 µM)
STK38
  kinase-Nluc reporter destabilization hit call: inactive: 0
SYK
  kinase-Nluc reporter destabilization hit call: inactive: 0
TEC
  kinase-Nluc reporter destabilization hit call: inactive: 0
TYK2
  kinase-Nluc reporter destabilization hit call: inactive: 0
ULK3
  kinase-Nluc reporter destabilization hit call: inactive: 0
YES1
  kinase-Nluc reporter destabilization hit call: inactive: 0
ZAK
  kinase-Nluc reporter destabilization hit call: inactive: 0
ZAP70
  kinase-Nluc reporter destabilization hit call: inactive: 0
ABL1
  number of time points: 0
AKT1
  number of time points: 0

## O=C(Nc1cccc(-c2nncn2C2CC2)c1)c1cc(-n2cnc(C3CC3)c2)ccn1 (10 µM)
STK38
  kinase-Nluc reporter destabilization hit call: inactive: 0
SYK
  kinase-Nluc reporter destabilization hit call: inactive: 0
TEC
  kinase-Nluc reporter destabilization hit call: inactive: 0
TYK2
  kinase-Nluc reporter destabilization hit call: inactive: 0
ULK3
  kinase-Nluc reporter destabilization hit call: inactive: 0
YES1
  kinase-Nluc reporter destabilization hit call: inactive: 0
ZAK
  kinase-Nluc reporter destabilization hit call: inactive: 0
ZAP70
  kinase-Nluc reporter destabilization hit call: inactive: 0
ABL1
  number of time points: 0
AKT1
  number of time points: 0
